Results on 9 sequences are retold here after publication PMC12370185.

Some of the results follow.

The subject of this experiment is OCT4 + histone octamer. In words: EMSA with sequencing. The settings on record: 10 mM Tris-Cl pH 7.5, 50 mM NaCl, 1 mM DTT, 0.25 mg/ml BSA, 2 mM MgCl2, 0.025% Nonidet P-40, 5% glycerol; 28 nM nucleosome library; 10 min on ice then 30 min …; high values mean tight binding; double strand, one strand shown. For orientation: A gel shift assay detects complexes by their altered migration in electrophoresis.
With “GATGGACCCTATACGCGGCCTGGGTTCTGAGAGCCTTCAGGACATGTGTCACCGCAGACGACGTTTTAACTTGTAGTGCTAGCTGCTTGTTTCAACTTGCTCCACAAAGGAAAAATAACTATTATGGTCTGGGTGGCACTGGGAAAACATCTTCCATCTTCTAGACCTAGAAGTGAGACTTTTAGCTGAAGAAATGGACTCCAAGTCCAGTGCCAGTCGGATAGTGTTCC”, the binding signal (log2 relative supershift) is 0.0323.

Turning to “GATGGACCCTATACGCGGCTAAAGTCCTTCAACATGTGAACAGACACTGTTTCTGAGGCTGTCACACACATGCAGGGAAAAGGATTTACCTTACAAAACAATGTTGCTTTGATAATACCACATCTGCAACCCTAATTGTGCCTTTGTAGCAAGTTGGTTTGGCCATTGGTCATCCTCCACAGCACTGCAATTTATCCTCCAGGAACACATTGCCAGTCGGATAGTGTTCC”, the binding signal (log2 relative supershift) came out at 0.0137.

For “GATGGACCCTATACGCGGCTCTACTTCTTGTTTCTTTCCTTGCTATTTAATACTTAAAGTGTGGTGCCCCACTTGTTTGCCAGGAGCAGTATCACATCAGACTCTGCTGTTAACAAGGTCCCCAGGTGATTCATATGCACATTAAAGTTCATTTTGCACCTCTTTTGGCATTGACTTTACTTTCAGTGGCCTATTTTATGTAATGTAAAATGCCAGTCGGATAGTGTTCC”, the binding signal (log2 relative supershift) stood at 0.622.

In the case of “GATGGACCCTATACGCGGCATGATTCTCGCCAGTGGTATTAACATATCCTCAGTGGTGAGTATTAACATGGAACTTACTCCAACAATACAGATGCTGAATAAATGTAGTCTAAGTGAAGGAAGAAGGAAAGGTGGGAGCTGCCATCACTCAGAATTGTCCAGCAGGGATTGTGCAAGCTTGTGAATAAAGACAGAGGTTATTGAACAGCGTGCCAGTCGGATAGTGTTCC”, the binding signal (log2 relative supershift) turned out to be 1.56.

On to “GATGGACCCTATACGCGGCTGTGAAATAACCTGCATTAGAATTACCTGGTGGACAACACATATTAACAATGCATATTCTGAGTCCTCAAAGAACTATCAAATAAGAATCTTTGAGGTGGGGCTACACAATCTCCATCACTGGCAAGCACTCCCAGTACTTCTTATGCACATTACAATTCAAGAACCACTCATGGCTCACATAACTGCTCATGCCAGTCGGATAGTGTTCC”, for which the binding signal (log2 relative supershift) worked out at 0.464.

For “GATGGACCCTATACGCGGCTTTGGTTTTCCATATTTATATCCTATATACTTGTGTGTACAATGCAAGCTTTGTTATGCTGTATCTGGCCAGTGTTTTCTTCCCTTTACAACAGGCAGTAACTGTAGCTGTGCATAATGTACCTGACAGTGAAGGTGGCTGGCTATTGAAGTCTCTTGTTGGGCAACGTTTGTGCTGGCACAGCCATGGTATGCCAGTCGGATAGTGTTCC”, the binding signal (log2 relative supershift) amounted to 0.504.

Take “GATGGACCCTATACGCGGCGAATGGTGGCTGGACTCTATTAGGCTCCAAACTCTCATGTGCCTGAGCGCCAGCTCCCTCTCTAAACATAAGCATCTCGGGGCTGGAGGTGGGGGGAAATTTTCTGATGCATCTTTCTTTGCCATGTAATTCCTACCCCAGGATCATGCTCACATAAGTGTTCTTGGAATATGTGAGTAAGTGACTGAAAATGCCAGTCGGATAGTGTTCC”: the binding signal (log2 relative supershift) was found to be 0.00049.

Regarding “GATGGACCCTATACGCGGCTGAAACAATCCTTACTCAGAGAGTGGATTTGCATCTCTAATAGAGTTCAGGCTCTGTTTGTGAAAGGCTTTTGCTAGGCCTGACCCCATGTCTCAGGAGCACATTGATACCCAGCGCCTTGCCTTTGCCTTGTCCCACACCACAGAGAGCAGTATCATGGGAAAATGCACTAACCTAAAAGAAAGCAAAGGTGCCAGTCGGATAGTGTTCC”, the binding signal (log2 relative supershift) was 1.23.

In the case of “GATGGACCCTATACGCGGCCACTATTTCACGACCTTGCACATAGTTCATTTGTTTCATACATCACACACTGTTGTGTTACGTATTGACATGGCTGTCTTCACAACTAGGCTCTGAGCACCTTAAAGGCTGGGACTGACGCCAGTCACAATCTAATGCAAAGGACAGTGCTGTTATGGAAATGTTTATTGAACTGAACTGAAAATCCTGCCTGCCAGTCGGATAGTGTTCC”, the binding signal (log2 relative supershift) came to 0.289.
